Experiment: Extraction, DNPH derivatization and HPLC-MS of atherosclerotic plaque extracts
Set-up: species or system human

| SMILES | mean amount of 4b in plaque, no PMA (n=14) [pmol/mg] | mean amount of 4b in plaque, PMA added (n=14, p<0.05) [pmol/mg] | 7b in plaque extracts (trace amounts) (several plaque extracts) [pmol/mg] |
| --- | --- | --- | --- |
| CC(C)CCC[C@@H](C)[C@H]1CCC2C(C/C=N/Nc3ccc([N+](=O)[O-])cc3[N+](=O)[O-])C([C@@]3(C)CC[C@H](O)CC3=O)CC[C@@]21C (stereo partly drawn) [4b, 2,4-Dinitrophenylhydrazone of 3β-hydroxy-5-oxo-5,6-secocholestan-6-al] | 18.7 ± 5.7 | 42.5 ± 13.6 | – |
| CC(C)CCC[C@@H](C)[C@H]1CCC2C3C(CC[C@@]21C)[C@@]1(C)CCC=C[C@@]1(O)[C@@H]3/C=N/Nc1ccc([N+](=O)[O-])cc1[N+](=O)[O-] (stereo partly drawn) [7b, 2,4-Dinitrophenylhydrazone of 5β-hydroxy-B-norcholest-3-ene-6β-carboxaldehyde] | – | – | < 5 |

Reference: patent publication US20060210554A1, “Detection of cholesterol ozonation products” (priority 2003, published 2006)
